## Primary screen of a compound library

Amino acid sequences for entries named in this document (tags omitted).
UniProt P9WPC5, whole entry: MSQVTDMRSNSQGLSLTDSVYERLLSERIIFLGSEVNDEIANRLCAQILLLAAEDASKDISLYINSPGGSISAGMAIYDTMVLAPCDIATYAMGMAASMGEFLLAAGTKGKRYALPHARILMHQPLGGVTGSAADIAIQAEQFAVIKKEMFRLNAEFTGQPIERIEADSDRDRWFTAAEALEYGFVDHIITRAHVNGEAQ
UniProt P9WPC3, whole entry partner: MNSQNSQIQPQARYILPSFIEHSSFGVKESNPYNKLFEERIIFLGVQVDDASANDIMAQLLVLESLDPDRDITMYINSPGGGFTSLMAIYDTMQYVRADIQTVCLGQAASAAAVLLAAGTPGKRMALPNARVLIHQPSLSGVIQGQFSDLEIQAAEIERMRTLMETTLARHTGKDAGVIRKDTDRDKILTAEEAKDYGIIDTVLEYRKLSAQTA

The values are deposited in ChEMBL (CHEMBL3988442, “University of Dundee, Small-Polar-MMV Screening Library” (2021)).

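Protease assay of ClpP1P2, read by the AMC dye that it sets free. Target: ClpP1P2, Mycobacterium tuberculosis (UniProt P9WPC5 and UniProt P9WPC3). Tested at 50 µM. Higher reads as stronger inhibition, judged from the few compounds that gave an IC50. Most other retested compounds had strongly negative values. Of about 69,000 compounds tested this way, about 10 (0.015%) reached 50% or more in at least one test.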

Results are given as percent effect.
How 0% and 100% were set is not recorded. Most values in the screen are low, and negative values occur.
Compounds were drawn at random from those tested, without regard to their results.

Compound,percent effect
O=C(O)C1(n2ccc(-c3ccco3)n2)CCN(Cc2cccnc2)CC1,-6.384
COc1ccccc1OCCC(=O)NCc1ncc(C)c(OC)c1C,-3.345
CC(C)(C)C(=O)NCCCC(=O)NC(C)(C)c1ccc2c(c1)OCO2,-7.268
CN(c1ncnc2c1CCC2)C1CCCN(c2cccnn2)C1 (centres undefined),7.438
O=C(Nc1cccnc1-n1cc(Cl)cn1)C1CCCCC1,-16.99
CC(C)CNC(=O)[C@H]1CCS(=O)(=O)[C@@H]2CN(CC(C)C)C[C@H]12,-10.72
O=S(=O)(C/C=C/c1ccccc1)Cc1nc(C2CC2)no1,-10.82
Cc1ccc2nc(CN3CCCCC3C(=O)N3CCOCC3)cn2c1 (centres undefined),-15.5
O=C(NCC1CCOC1)c1cc(-c2cccc(Cl)c2)on1 (centres undefined),9.267
CC(NC(=O)N1CCN(c2ccccc2O)CC1)c1nncn1C (centres undefined),-7.423
COc1c(CNC(c2ccccc2)c2ccc(F)cc2)c(C)nn1C (centres undefined),-8.057
COc1ccc2c(c1)CC(NCc1cccc(CO)c1)CC2 (centres undefined),-3.216
CCCC(=O)N(CC)C(c1cccnc1)c1ccc2c(c1)CCO2 (centres undefined),-13.75
Cn1nccc1CN1CCOC(c2cccc(-c3cncnc3)n2)C1 (centres undefined),-15.24
CCc1nc(CN2CCc3c(ncn3C3CC3)C2)cs1,-26.14
COc1ccc(N(C(=O)c2ccccn2)C(C)C)cc1F,4.073
O=C([C@@H]1CC[C@@H]2[C@@H](CCN2Cc2ccncc2)O1)N1CCCCO1,-3.596
CCc1noc(C)c1C(=O)N1CCCC1Cn1cc(C)cn1 (centres undefined),4.659
O=C(NCCOc1ccc(Cl)cn1)Nc1nccs1,-11.95
CN(C)CCOCC1CN(CCN(C)C)Cc2ccnn2C1 (centres undefined),-3.618
Cc1cc(N2CCCN3CCC[C@H]3C2)n2nc(C)c(C)c2n1,-8.189
CC(NC1(CNS(C)(=O)=O)CCOCC1)c1ccccc1 (centres undefined),-1.371
COCCN1CC2(CCC1=O)CCN(Cc1nnc(C)o1)CC2,-1.851
COc1ncccc1CN1CC[C@@]2(O)CCN(C(=O)C3CCC3)C[C@H]2C1,2.188
CCC(C)N(Cc1sccc1C)C(=O)c1cnc[nH]1 (centres undefined),-11.01
O=C(NCc1ccc(OCC2CC2)nc1)c1c(F)cccc1F,-13.63
CC(C)CNC(=O)N1CCOC2(CCNCC2)C1,-1.434
O=C(c1ccc(S(=O)(=O)N2CCNCC2)cc1)N1CCCC(O)C1 (centres undefined),20.38
CN(C)C(=O)CN1CCCC1c1nc(N)ncc1-c1ccc(F)cc1 (centres undefined),6.303
Cc1ccccc1OCCSc1nnc(CC2CCS(=O)(=O)C2)n1C (centres undefined),5.002
CCN(c1ccc(C(=O)N2CCCC2)cc1)S(=O)(=O)CC,-10.91
Cc1cc(C)c(CNC(=O)NCC2COc3ccccc3C2)c(=O)[nH]1 (centres undefined),4.936
CCOc1cc(C)nc(N2CCN(C(=O)c3ccncc3)CC2)n1,-2.546
Cc1nc(Nc2ccccn2)cc(N2CCN(S(C)(=O)=O)CC2)n1,-4.639
O=C(c1cc(C2CC2)nc2onc(-c3ccccc3)c12)N1CCOCC1,-6.205
CN1CCC2(CCN(C(=O)c3cccnc3)C2)C1 (centres undefined),-6.752
O=C(c1ccc(-n2cccn2)nc1)N1CCC(Nc2cccnn2)CC1,0.5483
COc1nccc(C(F)(F)F)c1C(=O)O,2.754
CS(=O)(=O)NCC(=O)NC1(c2ccc(Cl)c(Cl)c2)CC1,-2.985
CC(C)NC(=O)N1CCN(S(=O)(=O)C2CC2)CC2(CNC(=O)C2)C1 (centres undefined),-4.595
Cn1c(CS(=O)(=O)Cc2ccc(Cl)cc2)cc(=O)n(C)c1=O,12.28
CN(C)S(=O)(=O)N1CCN(Cc2ccnc(N3CCCC3)n2)CC1,-9.628
O=S(=O)(CCc1ccccc1Cl)CC(O)CO (centres undefined),-11.97
Cc1nc(CN2C[C@@H]3CN(C(=O)C4CC4)C[C@@H]3C2=O)cs1,9.756
CN1CCC(Oc2ccc(-n3ccnc3-c3nccn3C)cc2)CC1,-7.437
CN(C)C(=O)c1cccc(CN2CCN(CCO)CC2)c1,37.82
Cn1cc(CN2C[C@@H]3CCCO[C@@H]3[C@H](N3CCCC3=O)C2)cn1,-0.6072

Some entries from above, unchanged:

Compound	percent effect
CCN(c1ccc(C(=O)N2CCCC2)cc1)S(=O)(=O)CC	-10.91
COCCN1CC2(CCC1=O)CCN(Cc1nnc(C)o1)CC2	-1.851
Cc1ccccc1OCCSc1nnc(CC2CCS(=O)(=O)C2)n1C (centres undefined)	5.002